Test results from patent US10450311B2, “Pesticidally active heterocyclic derivatives with sulphur containing substituents” (Syngenta Participations AG, priority 2014, dated 2019).
Some entries share one result that the patent states for a list of compounds.

How the values were obtained:
Assay type in all cases: in vivo
[1] = system: Diabrotica balteata (Corn Root Worm); assay: Activity against Diabrotica balteata, sprayed maize sprouts; conditions: application rate of 200 ppm; larvae on maize sprouts; 4 days after infestation
Protocol: Example B2: Activity Against Diabrotica balteata (Corn Root Worm)
Maize sprouts, placed on an agar layer in 24-well microtiter plates were treated with aqueous test solutions prepared from 10′000 ppm DMSO stock solutions by spraying. After drying, the plates were infested with […] (6 to 10 per well). The samples were assessed for mortality 4 days after infestation.

[2] = system: Euschistus heros (Neotropical Brown Stink Bug); assay: Activity against Euschistus heros, sprayed soybean leaf; conditions: application rate of 200 ppm; N-2 nymphs on soybean leaf; 5 days after infestation
Protocol: Example B3: Activity Against Euschistus heros (Neotropical Brown Stink Bug)
Soybean leaf on agar in 24-well microtiter plates were sprayed with aqueous test solutions prepared from 10′000 ppm DMSO stock solutions. After drying the leaf were infested with N-2 nymphs. The samples were assessed for mortality 5 days after infestation.

[3] = system: Myzus persicae (Green Peach Aphid); assay: Activity against Myzus persicae, sprayed sunflower leaf discs; conditions: application rate of 200 ppm; aphid population of mixed ages on sunflower leaf discs; 6 days after infestation
Protocol: Example B5: Activity Against Myzus persicae (Green Peach Aphid)
Sunflower leaf discs were placed on agar in a 24-well microtiter plate and sprayed with aqueous test solutions prepared from 10′000 ppm DMSO stock solutions. After drying, the leaf discs were infested with an aphid population of mixed ages. The samples were assessed for mortality 6 days after infestation.

[4] = system: Plutella xylostella (Diamond Back Moth); assay: Activity against Plutella xylostella, treated artificial diet; conditions: application rate of 200 ppm; L2 larvae on artificial diet; 5 days after infestation
Protocol: Example B8: Activity Against Plutella xylostella (Diamond Back Moth)
24-well microtiter plates with artificial diet were treated with aqueous test solutions prepared from 10′000 ppm DMSO stock solutions by pipetting. After drying, the plates were infested with L2 larvae (10 to 15 per well). The samples were assessed for mortality and growth inhibition in comparison to untreated samples 5 days after infestation.

[5] = system: Spodoptera littoralis (Egyptian Cotton Leaf Worm); assay: Activity against Spodoptera littoralis, sprayed cotton leaf discs; conditions: application rate of 200 ppm; L1 larvae on cotton leaf discs; 3 days after infestation
Protocol: Example B9: Activity Against Spodoptera littoralis (Egyptian Cotton Leaf Worm)
Cotton leaf discs were placed on agar in 24-well microtiter plates and sprayed with aqueous test solutions prepared from 10′000 ppm DMSO stock solutions. After drying the leaf discs were infested with five L1 larvae. The samples were assessed for mortality, anti-feedant effect, and growth inhibition in comparison to untreated samples 3 days after infestation. Control of Spodoptera littoralis by a test sample is when at least one of mortality, anti-feedant effect, and growth inhibition is higher than the untreated sample.

[6] = system: Spodoptera littoralis (Egyptian Cotton Leaf Worm); assay: Activity against Spodoptera littoralis, compound in agar taken up by lettuce; conditions: test rate of 12.5 ppm, lettuce root uptake, 6 days after infestation
From the text: Example B10: Activity Against Spodoptera littoralis (Egyptian Cotton Leaf Worm)
Test compounds were applied by pipette from 10′000 ppm DMSO stock solutions into 24-well plates and mixed with agar. Lettuce seeds were placed on the agar and the multi well plate was closed by another plate which contains also agar. After 7 days the roots have absorbed the compound and the lettuce has grown into the lid plate. The lettuce leafs were now cut off into the lid plate. Spodoptera eggs were pipetted through a plastic stencil on a humid gel blotting paper and the plate closed with it. The samples were assessed for mortality, anti-feedant effect and growth inhibition in comparison to untreated samples 6 days after infestation.

CCS(=O)(=O)c1cc(-c2ccc(C(F)(F)F)cc2)cnc1-c1nc2cc(C(F)(F)F)c(=O)n(C)c2n1C [Compound B4]
at least 80%: mortality [1] | mortality [2] | mortality [3] | effect in at least one of the two categories (mortality or growth inhibition) [4] | control (at least one of mortality, anti-feedant effect, growth inhibition) [5]

CCc1cccc(-c2cnc(-c3nc4cc(C(F)(F)F)n(C)c(=O)c4n3C)c(S(=O)(=O)CC)c2)c1 [Compound A52]
at least 80%: effect in at least one of the two categories (mortality or growth inhibition) [4] | control (at least one of mortality, anti-feedant effect, growth inhibition) [5]

CCS(=O)(=O)c1cc(-c2ccccc2C#N)cnc1-c1nc2cc(C(F)(F)F)n(C)c(=O)c2n1C [Compound A50]
at least 80%: effect in at least one of the two categories (mortality or growth inhibition) [4] | control (at least one of mortality, anti-feedant effect, growth inhibition) [5]

CCS(=O)(=O)c1cc(-c2ccncc2)cnc1-c1nc2cc(C(F)(F)F)n(C)c(=O)c2n1C [Compound A58]
at least 80%: mortality [2] | mortality [3] | effect in at least one of the two categories (mortality or growth inhibition) [4]

CCS(=O)(=O)c1cc(-n2cc(C(F)(F)F)cn2)cnc1-c1nc2cc(C(F)(F)F)n(C)c(=O)c2n1C [Compound A25]
at least 80%: mortality [1] | mortality [2] | effect in at least one of the two categories (mortality or growth inhibition) [4] | control (at least one of mortality, anti-feedant effect, growth inhibition) [5]

CCS(=O)(=O)c1cc(-c2ccc(F)cc2C)cnc1-c1nc2cc(C(F)(F)F)n(C)c(=O)c2n1C [Compound A59]
at least 80%: mortality [1] | mortality [3] | control (at least one of mortality, anti-feedant effect, growth inhibition) [5]

CCSc1cc(-c2ccc(Cl)cc2)cnc1-c1nc2cc(C(F)(F)F)n(C)c(=O)c2n1C [Compound A18]
at least 80%: effect in at least one of the two categories (mortality or growth inhibition) [4] | control (at least one of mortality, anti-feedant effect, growth inhibition) [5]

CCS(=O)(=O)c1cc(-c2ccc(Cl)cc2Cl)cnc1-c1nc2cc(C(F)(F)F)n(C)c(=O)c2n1C [Compound A63]
at least 80%: mortality [1] | mortality [2] | effect in at least one of the two categories (mortality or growth inhibition) [4] | control (at least one of mortality, anti-feedant effect, growth inhibition) [5]

CCS(=O)(=O)c1cc(-c2ccc(Cl)c(Cl)c2)cnc1-c1nc2cc(C(F)(F)F)n(C)c(=O)c2n1C [Compound A62]
at least 80%: mortality [1] | mortality [2] | effect in at least one of the two categories (mortality or growth inhibition) [4] | control (at least one of mortality, anti-feedant effect, growth inhibition) [5]

CCCCn1c(C(F)(F)F)cc2nc(-c3ncc(C(F)(F)F)cc3S(=O)(=O)CC)n(C)c2c1=O [Compound A5]
at least 80%: mortality [1] | effect in at least one of the two categories (mortality or growth inhibition) [4] | control (at least one of mortality, anti-feedant effect, growth inhibition) [5]

CCSc1cc(C2CC2)ccc1-c1nc2cc(C(F)(F)F)n(CC)c(=O)c2n1C [Compound A38]
at least 80%: mortality [1] | mortality [2] | mortality [3] | effect in at least one of the two categories (mortality or growth inhibition) [4] | control (at least one of mortality, anti-feedant effect, growth inhibition) [5]

CCSc1cc(C(F)(F)F)cnc1-c1nc2cc(C(F)(F)F)n(C)c(=O)c2n1C [Compound A29]
at least 80%: mortality [1] | mortality [2] | effect in at least one of the two categories (mortality or growth inhibition) [4]

CCS(=O)(=O)c1cc(-c2cnc(OC)nc2)cnc1-c1nc2cc(C(F)(F)F)n(C)c(=O)c2n1C [Compound A55]
at least 80%: control (at least one of mortality, anti-feedant effect, growth inhibition) [5]

CCSc1cc(C2CC2)ccc1-c1nc2cc(C(F)(F)F)n(C)c(=O)c2n1C [Compound A37]
at least 80%: mortality [1] | mortality [2] | effect in at least one of the two categories (mortality or growth inhibition) [4]

CCS(=O)(=O)c1cc(-c2cncc(C)c2)cnc1-c1nc2cc(C(F)(F)F)n(C)c(=O)c2n1C [Compound A53]
at least 80%: mortality [2] | mortality [3] | effect in at least one of the two categories (mortality or growth inhibition) [4] | control (at least one of mortality, anti-feedant effect, growth inhibition) [5]

CCS(=O)(=O)c1cc(C(F)(F)F)cnc1-c1nc2cc(C(F)(F)F)n(Cc3cccc(OC)c3)c(=O)c2n1C [Compound A13]
at least 80%: mortality [1] | control (at least one of mortality, anti-feedant effect, growth inhibition) [5]

CCSc1cccnc1-c1nc2cc(C(F)(F)F)n(C)c(=O)c2n1C [Compound A16]
at least 80%: mortality [1] | mortality [2] | mortality [3] | effect in at least one of the two categories (mortality or growth inhibition) [4] | control (at least one of mortality, anti-feedant effect, growth inhibition) [5]

CCS(=O)(=O)c1cc(-c2ccc(C(F)(F)F)nc2)cnc1-c1nc2cc(C(F)(F)F)n(C)c(=O)c2n1C [Compound A65]
at least 80%: mortality [1] | mortality [2] | effect in at least one of the two categories (mortality or growth inhibition) [4] | control (at least one of mortality, anti-feedant effect, growth inhibition) [5]

CCS(=O)(=O)c1cc(-c2ccccc2F)cnc1-c1nc2cc(C(F)(F)F)n(C)c(=O)c2n1C [Compound A56]
at least 80%: mortality [1] | mortality [2] | mortality [3] | effect in at least one of the two categories (mortality or growth inhibition) [4] | control (at least one of mortality, anti-feedant effect, growth inhibition) [5]

CCCn1c(C(F)(F)F)cc2nc(-c3ncc(C(F)(F)F)cc3S(=O)(=O)CC)n(C)c2c1=O [Compound A6]
at least 80%: mortality [1] | mortality [2] | mortality [3] | effect in at least one of the two categories (mortality or growth inhibition) [4] | control (at least one of mortality, anti-feedant effect, growth inhibition) [5] | effect in at least one of the three categories (mortality, anti-feedancy, or growth inhibition) [6]

CCS(=O)(=O)c1cc(-c2ccc(F)cn2)cnc1-c1nc2cc(C(F)(F)F)n(C)c(=O)c2n1C [Compound A45]
at least 80%: mortality [1] | mortality [2] | effect in at least one of the two categories (mortality or growth inhibition) [4] | control (at least one of mortality, anti-feedant effect, growth inhibition) [5]

CCS(=O)(=O)c1cc(-c2ccc(OC)c(F)c2)cnc1-c1nc2cc(C(F)(F)F)n(C)c(=O)c2n1C [Compound A64]
at least 80%: effect in at least one of the two categories (mortality or growth inhibition) [4] | control (at least one of mortality, anti-feedant effect, growth inhibition) [5]

CCS(=O)(=O)c1cc(-c2ccccc2C(F)(F)F)cnc1-c1nc2cc(C(F)(F)F)n(C)c(=O)c2n1C [Compound A61]
at least 80%: mortality [1] | effect in at least one of the two categories (mortality or growth inhibition) [4] | control (at least one of mortality, anti-feedant effect, growth inhibition) [5]
